# Data: PubChem BioAssay AID493014 (National Center for Advancing Translational Sciences (NCATS), 2011)
# Some of the results follow. Further columns of the screen follow, without active or inactive calls. Compounds called inactive in the main read-out are mostly missing here. Words in brackets tell the shape of the fitted curve; partial curves, single points and poor fits give uncertain potencies.
# Experiment: qHTS Assay to Find Inhibitors of Chronic Active B-Cell Receptor Signaling
# Settings: ABC-DLBCL IkBa-CBG/CBR reporter, luminescence ratio (green luciferase fused to IkBa over red control in TMD8 lymphoma cells), 4 h
# Method in brief: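 Cell line TMD8 (human ABC DLBCL), stably expressing tet-inducible CBG68-IkBa fusion and CBR; IMDM/0.5% FBS; cpd up to 46 uM; dox induction, 4 h, 37C/5% CO2; dual luminescence; green/red ratio; MG132 control.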
# [1] = measured here: CBR red luminescence, cell number
# [2] = measured here: IkBa-CBG green luminescence
Compound,AC50 [1],AC50 [2]
CCC(=O)Nc1ccc(-c2ccc(N3CCCCC3)nn2)cc1,"20 µM [rising, single point]",–
CN(C)c1ccc(C2CC(c3ccccc3)=Nc3nc(-c4ccccc4)cn32)cc1 (stereo unspecified),"23.1 µM [falling, single point]",–
C#CCOCCOCCOCCNc1nc(N2CCN(C(=O)Cn3cc(CCCN=C(N)N)nn3)CC2)nc(N2CCN(C(=O)[C@H]([C@@H](C)O)n3cc(CCCCN)nn3)CC2)n1,"0.731 µM [rising, full curve, poor fit]",–
CCCc1nnc(NC(=O)c2cccc(OC)c2)s1,"11.2 µM [falling, partial curve]",–
COc1cccc(NC2c3ccccc3C(=O)N2Cc2ccccc2Cl)c1 (stereo unspecified),"35.5 µM [falling, single point]",–
Cc1cccc(C(=O)N(Cc2ccc(C)o2)C2CCS(=O)(=O)C2)c1 (stereo unspecified),"0.398 µM [falling, full curve, poor fit]",–
O=C(CN1CCCCC1)NC(=O)NC1CCCC1,"7.08 µM [rising, partial curve]",–
Cc1ccc(-n2nnnc2Sc2nc([N+](=O)[O-])nn2C)cc1,"16.4 µM [falling, single point]","25.9 µM [falling, single point]"
Cc1ccc(-n2cc(-c3ccccc3)c3c(NN4CCOCC4)ncnc32)cc1,"20.6 µM [rising, partial curve, poor fit]",–
CC1=C(C)C(=O)C(N2CCOCC2)=CC1=O,"32.6 µM [falling, single point]",–
COc1cccc(C(=O)Nc2cccc(C(=O)N3CCOCC3)c2)c1,"2.91 µM [rising, single point]",–
Cc1ccc(OCC(=O)NNC(=O)Cn2c(=O)cnc3ccccc32)cc1,"5.17 µM [falling, partial curve]",–
O=C(NCCC(=O)N1CCCCC1)c1ccc(Br)cc1,"5.01 µM [rising, single point]",–
CCNS(=O)(=O)c1ccc(Br)c(C(=O)OC(C)C(=O)NCC2CCCCC2)c1 (stereo unspecified),"5.8 µM [rising, partial curve, poor fit]",–
O=C(Nc1cnn(Cc2c(Cl)cccc2Cl)c1)c1ccc([N+](=O)[O-])cc1,"0.251 µM [rising, partial curve, poor fit]",–
Cc1cc(C)c(C(CC(=O)c2cccs2)C(C#N)C#N)c(C)c1 (stereo unspecified),"18.4 µM [falling, single point]",–
CC1CN(S(=O)(=O)c2cccc(C(=O)N(CCc3ccccc3)Cc3ccccc3)c2)CC(C)O1 (stereo unspecified),"29.1 µM [falling, single point]",–
CCC(C)c1ccc(NC(=O)C/C(C)=N/NC(=O)c2cnccn2)cc1 (stereo unspecified),"23.1 µM [falling, single point]",–
Oc1ccc2oc3c(c2c1/C=N/n1cnnc1)CCCC3,"35.5 µM [rising, partial curve, poor fit]",–
CN(C)CCCN1c2ccccc2Sc2ccc(C(F)(F)F)cc21,"23.1 µM [falling, partial curve, poor fit]",–
Nc1nc(-c2ccccc2)cs1,"0.58 µM [rising, full curve, poor fit]",–
CCN(C(=O)C1CCCN1S(=O)(=O)c1cccc2nsnc12)c1ccccc1 (stereo unspecified),"20 µM [rising, single point]",–

# Record cards, as listed above:
# Cc1ccc(-n2nnnc2Sc2nc([N+](=O)[O-])nn2C)cc1 as listed: AC50 [1]: 16.4 µM [falling, single point]; AC50 [2]: 25.9 µM [falling, single point]
# COc1cccc(C(=O)Nc2cccc(C(=O)N3CCOCC3)c2)c1 as listed: AC50 [1]: 2.91 µM [rising, single point]

# Next compounds.

Compound,AC50 [1],AC50 [2]
CCOC(=O)C(CCCOc1ccc(C)cc1)C(=O)OCC,"0.651 µM [falling, full curve, poor fit]",–
COc1ccc(C2C3=C(NCCN=C3c3ccccc3)C(=O)N2c2ccccc2)c(OC)c1 (stereo unspecified),"22.4 µM [falling, partial curve, poor fit]",–
O=C(c1ccncc1)N1CCN(c2ccc(F)cc2)CC1,"2.91 µM [falling, single point]",–
COc1ccc(CCNC(=O)CN(c2cccc([N+](=O)[O-])c2)S(C)(=O)=O)cc1,"6.31 µM [rising, partial curve, poor fit]",–
COc1cccc2sc(N)nc12,"5.8 µM [falling, partial curve]",–
Cc1cccc(C(=O)O/N=C(\N)c2ccccn2)c1,"1.58 µM [falling, full curve]",–
C=CCN(CC=C)C(=S)Nc1ccc2nsnc2c1,"35.5 µM [falling, single point]",–
CCN1CCCC1CN(Cc1cc2ccc(C)cc2[nH]c1=O)C(=S)Nc1ccc(OC)cc1OC (stereo unspecified),"13 µM [rising, partial curve, poor fit]",–
Cc1ccccc1CC(=O)N1CCN(C(=O)C2CCCO2)CC1 (stereo unspecified),"3.16 µM [rising, partial curve, poor fit]",–
NS(=O)(=O)c1ccc(NC(=O)c2cccc3ccccc23)cc1,"2 µM [falling, full curve]",–
COc1ccc(N=c2oc3c(OC)cccc3cc2C(=O)NCc2ccco2)cc1OC,"32.6 µM [falling, partial curve, poor fit]",–
C/C(=N/NC(=O)c1ccn(C)n1)c1ccncc1,"35.5 µM [falling, single point]",–
COC(=O)C(=Nc1ccccc1)/C(C(=O)C(=O)N(C)c1ccccc1)=C(\O)c1ccc(Cl)cc1,"7.94 µM [falling, partial curve]",–
CC(=O)Nc1cccc(-c2nc3ccc(NC(C)=O)cc3[nH]2)c1,"0.1 µM [falling, full curve, poor fit]",–
COc1ccc(-c2nn(-c3ccccc3)cc2/C=N/NC(=O)c2cccc(S(=O)(=O)Nc3ccccc3OC)c2)cc1,"8.2 µM [rising, partial curve]",–
O=C(CCCOc1ccc(Cl)cc1Cl)NCc1ccncc1,"7.94 µM [rising, full curve, poor fit]",–
CCn1c(COC(=O)CNC(=O)c2ccccc2)nc2cc(S(=O)(=O)N(C)C)ccc21,"29.1 µM [rising, single point]",–
O=C(c1ccc(COCC(F)(F)F)cc1)N1CCN(c2ccccn2)CC1,"0.316 µM [rising, partial curve, poor fit]",–
CCCc1cc(=O)oc2cc(OCC(=O)NCCCn3ccnc3)c(Cl)cc12,"15.8 µM [rising, partial curve, poor fit]",–
C=CCn1c(=O)c(C#N)cc2c(=O)n3ccccc3nc21,"2.82 µM [falling, full curve, poor fit]",–
CCOc1ccc(NC2c3ccccc3C(=O)N2c2ccc(Cl)cn2)cc1 (stereo unspecified),"29.1 µM [rising, single point]",–
O=C(Nc1ccc2c(c1)OCCO2)C1CCN(C(=O)c2ccc(F)cc2)CC1,"35.5 µM [falling, single point]",–

Compound,AC50 [1],AC50 [2]
CCCCn1cnc2c(sc3nc4c(cc32)CSC(C)(C)C4)c1=O,"18.4 µM [rising, partial curve, poor fit]",–
O=c1[nH]c(=O)n(Cc2ccco2)c2c1C(C(F)(F)F)(C(F)(F)F)N=C(CCc1ccccc1)N2,"35.5 µM [falling, single point]",–
COc1ccc(-c2cc(-c3cc(F)ccc3O)[nH]n2)cc1OC,"10 µM [falling, partial curve, poor fit]",–
COc1ccc(NC(=O)c2ccccn2)cc1,"10 µM [falling, partial curve]",–
O=Cc1ccc(OCc2cccc(C(F)(F)F)c2)cc1O,"12.6 µM [rising, partial curve]",–
CN(C)S(=O)(=O)c1ccc(C(=O)Nc2ccccc2SCCC#N)cc1,"12.6 µM [falling, partial curve, poor fit]",–
Cc1ccc(C(=O)Nc2cnc3ccccc3c2)cc1,"20.6 µM [falling, single point]",–
Cc1cccc(C(=O)NNC2=CC(=O)CC(C)(C)C2)c1O,"35.5 µM [falling, single point]",–
O=c1c(C=NCCCO)c(-c2ccccc2)[nH]n1-c1nc2ccccc2s1,"1.58 µM [rising, full curve, poor fit]","5.62 µM [falling, partial curve, poor fit]"
COCCN1CCN(Cc2cn(C)nc2-c2ccc(Oc3ccccc3)cc2)CC1,"15.8 µM [rising, partial curve, poor fit]",–
Cc1cc(C)cc(-c2nnc(SCC(=O)N3CCN(C(=O)c4ccco4)CC3)o2)c1,"6.31 µM [rising, partial curve, poor fit]",–
Cc1ccc(Nc2nc(N)c([N+](=O)[O-])c(NCc3ccco3)n2)cc1C,"11.6 µM [rising, partial curve]",–
CCCOc1ccc(C2Nc3cccc4cccc(c34)N2)cc1,"15.8 µM [falling, single point]",–
CCOC(=O)c1cc(NC(=O)Nc2ccc(OC)c(OC)c2)c(C)nc1C,"4.61 µM [falling, full curve]",–
COc1ccc(OC)c(C(=O)c2c(C)oc3cc([N+](=O)[O-])c(O)c([N+](=O)[O-])c23)c1,"6.31 µM [falling, single point]",–
Cc1ccc(C(C(=O)NC(C)(C)C)N(Cc2ccccc2)C(=O)c2snc(C(N)=O)c2N)o1 (stereo unspecified),"22.4 µM [falling, single point]",–
N#Cc1cc(C#N)c(N2CCN(c3cccc(Cl)n3)CC2)nc1N,"35.5 µM [falling, single point]",–
COc1cc(CNCCO)cc(Br)c1OCc1cccs1,"7.08 µM [falling, partial curve, poor fit]",–
Nc1nnc(CC(=O)Nc2ccccc2)s1,"35.5 µM [falling, single point]",–
O=c1oc(-c2ccco2)nc2sc3c(c12)CCCC3,"2.91 µM [falling, full curve, poor fit]",–
